Results from the supplement of paper PMC12889115.
This is one part of the list. These are raw signals, not scaled to a control.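 In the initial screen, polymyxin B was used at a concentration that permeabilizes Salmonella's outer membrane but not its inner membrane. Maximum growth was set by DMSO wells with or without polymyxin B. Since plates varied, data were ranked per plate, and compounds giving the lowest OD600 advanced as hits.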

System: Salmonella enterica serovar Typhimurium SL1344
Assay: bacterial growth OD600 after 18 h with compound and polymyxin B; higher = more bacterial growth (less inhibition)
Settings: 50 µM, Mueller-Hinton broth

SMILES	bacterial growth OD600 (polymyxin B 1 µg/mL)	bacterial growth OD600 (polymyxin B 0.75 µg/mL)
COc1cc(OC)cc(C(=O)NCC2CCCN(C(=O)CC3=CCCCC3)C2)c1 (centres undefined)	0.964	–
Cc1cc2nc(N3CCC(C(=O)NCC4(c5ccccc5)CCOCC4)CC3)nc(C)c2cc1C	–	0.879
O=C(Cn1nnnc1CN1CCOCC1)N1CCN(c2ccccc2)C(=O)C1	–	0.845
COc1ccc(CC(=O)N(C)CC2CCCN(CCc3ccccc3F)C2)cc1 (centres undefined)	1	–
O=C(c1ccccc1)N1CCC(C2(c3ccccn3)NC(=O)N(CCc3cccs3)C2=O)CC1 (centres undefined)	–	0.786
O=C(NCC1CCCN(C(=O)CCCn2cncn2)C1)c1ccc(-c2ccccc2)cc1 (centres undefined)	0.938	–
O=C(CCCc1ccccc1)Nc1ccnn1C1CCN(C(=O)C2CCCC2)CC1	0.68	–
CCn1nc(C)c(CN2CCCC(CCC(=O)Nc3ccccc3F)C2)c1C (centres undefined)	0.893	–
CCC(C)Nc1ccc(C(=O)N2CCC(Oc3cccnc3)CC2)cn1 (centres undefined)	1.01	–
COCCNC(=O)c1ccc(OC)cc1OC1CCN(CCc2ccccc2)CC1	1.22	–
CC(C)(C)NC(=O)NC1CC(=O)N(Cc2cccc3ccccc23)C1 (centres undefined)	1.13	–
COC(=O)[C@@H](NC(=O)c1coc(Cn2cnc3ccccc32)n1)c1ccccc1	0.933	–
Cc1c(C(=O)N2CCN(C(=O)c3ccco3)CC2)cnn1-c1ncc2c(n1)-c1ccccc1CCC2	–	0.803
c1ccc(-c2ncc3c(n2)CCCC3NC2CCC2)cc1 (centres undefined)	0.976	–
O=C(CCc1cccnc1)N1CCC(C2CCN(Cc3cccnc3)CC2)C1 (centres undefined)	–	0.854
CC(C)c1nc(CNC(=O)c2ccc(OC3CCN(C(=O)C4CC4)CC3)cc2)cs1	0.854	–
O=C(NCc1ccc2c(c1)OCO2)c1ccc(N2CCC(NCCCc3cccnc3)CC2)cc1	–	0.821
CCOc1cccc(CN2CCC(Oc3ccccc3C(=O)N3CCCCC3)CC2)c1	0.48	–
CO[C@H]1[C@H](NC(=O)c2ccccn2)c2ccccc2C12CCN(C(=O)c1cc3ccccc3n1C)CC2	–	0.004

Some of the entries so far, as a markdown table:

| SMILES | bacterial growth OD600 (polymyxin B 1 µg/mL) | bacterial growth OD600 (polymyxin B 0.75 µg/mL) |
| --- | --- | --- |
| COC(=O)[C@@H](NC(=O)c1coc(Cn2cnc3ccccc32)n1)c1ccccc1 | 0.933 | – |
| Cc1c(C(=O)N2CCN(C(=O)c3ccco3)CC2)cnn1-c1ncc2c(n1)-c1ccccc1CCC2 | – | 0.803 |
